Reference: the supplement of paper PMC3334620
Whole data set: some 33,000 sequences, median “E-score (-0.5 to 0.5)” near -0.015, cut for the highest 2% near 0.3. The list shows a part of the results.

What follows are sequences tested against T1, Abf1 (UniProt P14164) (assay: PBM E-score (8-mer binding enrichment) (E-score (-0.5 to 0.5)); higher = stronger / more preferred TF binding). Conditions: protein concentration: 200 nM; construct: GST-full length.
T1 sequence: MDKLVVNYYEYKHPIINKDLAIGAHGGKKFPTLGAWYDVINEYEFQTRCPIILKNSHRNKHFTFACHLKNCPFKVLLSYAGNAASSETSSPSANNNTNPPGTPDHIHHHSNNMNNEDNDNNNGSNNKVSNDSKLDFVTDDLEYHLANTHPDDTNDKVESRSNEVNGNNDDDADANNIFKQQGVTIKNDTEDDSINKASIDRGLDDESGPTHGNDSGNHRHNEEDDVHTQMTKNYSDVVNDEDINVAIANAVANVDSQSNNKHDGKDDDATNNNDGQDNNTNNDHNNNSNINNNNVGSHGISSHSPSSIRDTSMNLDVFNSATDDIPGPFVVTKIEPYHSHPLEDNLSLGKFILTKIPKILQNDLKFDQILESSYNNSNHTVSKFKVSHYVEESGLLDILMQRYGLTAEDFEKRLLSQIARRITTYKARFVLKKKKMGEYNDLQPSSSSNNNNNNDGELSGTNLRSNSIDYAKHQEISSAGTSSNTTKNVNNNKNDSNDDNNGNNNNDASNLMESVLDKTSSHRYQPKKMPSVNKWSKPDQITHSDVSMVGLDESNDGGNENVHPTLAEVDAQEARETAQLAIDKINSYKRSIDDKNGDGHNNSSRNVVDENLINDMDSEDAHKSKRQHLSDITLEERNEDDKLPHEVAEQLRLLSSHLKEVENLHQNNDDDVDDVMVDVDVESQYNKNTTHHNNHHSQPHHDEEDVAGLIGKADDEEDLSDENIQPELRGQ
Summary of the method: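 Full-length yeast transcription factors or their DNA-binding domains, GST-tagged and expressed with PURExpress, were applied at about 100-200 nM to universal all-10-mer Agilent arrays. These arrays had been made double-stranded by primer extension on fresh or once-stripped slides. Detection used fluorescent anti-GST, normalisation used masliner, and E-scores for ungapped eight-base words pooled with reverse complements came from the Universal PBM Analysis Suite.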

| Sequence | PBM E-score |
| --- | --- |
| AAACTCTC | 0.0963 |
| AGCCTCAT | -0.176 |
| ATCTCATC | 0.187 |
| AAGGACTT | -0.181 |
| CGCCACCG | -0.0617 |
| CAAATCCA | -0.00519 |
| CTGTACGA | 0.383 |
| AGTGTGAG | -0.0581 |
| ATTGGCGA | -0.0946 |
| GTTTAGGA | -0.194 |
| AAGGGTCT | -0.19 |
| ACCAGTAG | -0.0228 |
| CTTGGATA | -0.0809 |
| AATCACCT | 0.185 |
| AGAGCGGA | -0.0903 |
| CCTCTAAA | -0.225 |
| AGCATCTC | -0.0427 |
| ACAATGCC | -0.0597 |
| GCCTTGCA | -0.00308 |
| ATAAAGGG | -0.0362 |
| AGCAGAGC | -0.258 |
| AGGACGTC | 0.0509 |
| GTCCCTAA | 0.0908 |
| CTCGCAAA | -0.126 |
| GACTGTAC | 0.151 |

Some of the entries so far, as labelled records.
CAAATCCA
  PBM E-score = -0.00519
CTGTACGA
  PBM E-score = 0.383
AGTGTGAG
  PBM E-score = -0.0581
AATCACCT
  PBM E-score = 0.185

Continuation:

| Sequence | PBM E-score |
| --- | --- |
| ACCCTCTC | -0.224 |
| CACCATCG | -0.0531 |
| GCACAAAA | 0.0917 |
| ATAACCCG | -0.108 |
| CATTACGA | 0.128 |
| AACGATAA | 0.294 |
| CCTGGGAA | 0.0284 |
| CCGATTCG | -0.13 |
| ACGGTCAA | 0.0179 |
| CGTCATCC | 0.167 |
| AAAGGATC | 0.0169 |
| CCTGATCA | 0.112 |
| GGTATTAA | 0.0692 |
| AGACTGAG | -0.187 |
| CGGACCAC | -0.0306 |
| CATTTGTA | 0.0925 |
| AAAGTTAC | 0.0908 |
| AGGGGCAT | -0.0652 |
| TACAAATA | 0.0111 |
| AAAGACAT | -0.0189 |
| AGCCCGCT | -0.277 |
| CGACCATA | 0.00622 |
| ATACGTCG | 0.175 |
| CGAACTAA | 0.111 |
| CGCCTGCA | -0.0961 |

| Sequence | PBM E-score |
| --- | --- |
| ACGGACTG | 0.0212 |
| AAAAACCA | -0.0169 |
| GACGACGA | 0.251 |
| GGAAATCC | -0.0758 |
| CATGTGAG | 0.0113 |
| GCGATAAC | 0.158 |
| CCGTATGC | 0.0398 |
| AACAGATG | -0.135 |
| AGCCCTCG | -0.055 |
| CAGTTAAA | 0.0855 |
| TTCTTAAA | -0.0951 |
| AACCTAAG | 0.0698 |
| GCGCGACC | 0.0631 |
| GTCCATGA | 0.0241 |
| CAGAAGGA | -0.295 |
| AACTAGGG | -0.0853 |
| ACAAAAAA | 0.0295 |
| AAACAAAA | 0.0765 |
| TACCTAGA | 0.026 |
| CCCGCAAA | -0.0869 |
| CAGGAAAA | 0.0548 |
| CGCGAGAA | -0.324 |
| CTCGCCTA | 0.00128 |
| CACTGTCA | 0.234 |
| ATTATGTG | 0.174 |

| Sequence | PBM E-score |
| --- | --- |
| ACTTATTG | 0.0459 |
| AAGGGTTC | -0.192 |
| AAACTGAA | 0.00963 |
| ACGACCGG | -0.00676 |
| CCTTTACA | -0.209 |
| CCACGATA | 0.143 |
| CGAGTTCA | -0.0513 |
| AAGGATAC | -0.0825 |
| GGGCCTAA | -0.206 |
| ATGTCGTC | 0.29 |
| ACTTCGCC | 0.152 |
| ACCTCGTG | 0.225 |
| CTCTAATA | 0.175 |
| AACAGCCA | -0.0714 |
| CTCTGTTA | -0.106 |
| GTGTGGAA | -0.00899 |
| CCATGGAA | -0.104 |
| AATGACCT | 0.223 |
| ATTGGAAC | 0.094 |
| GCACTGTA | -0.0736 |
| TAGTATCA | 0.289 |
| GAAAGGAA | -0.113 |
| AGGTGATG | 0.163 |
| CTACATCA | 0.196 |
| AGCGAGAG | 0.0522 |

| Sequence | PBM E-score |
| --- | --- |
| ATAGACGG | 0.246 |
| CTGACCAG | -0.105 |
| TAACTGTA | -0.0884 |
| AGTTACGC | -0.0715 |
| GCCACGAC | 0.00175 |
| AGTAGAGG | -0.239 |
| ACCTAATC | 0.111 |
| AAAGATAT | 0.208 |
| GAAACATC | -0.00063 |
| CCAGATTC | -0.279 |
| CACGCCCG | 0.131 |
| TCGCAGCA | 0.074 |
| GAATGCCC | -0.0158 |
| ATGTGGAG | -0.0472 |
| ATTGCGCG | 0.0782 |
| CATAAGGC | 0.16 |
| ATCATTTA | 0.305 |
| GACACGGC | 0.184 |
| GGAAGCAA | -0.0647 |
| AAGTTTAA | -0.0962 |
| CGAACGTC | 0.141 |
| AAAGGGTT | -0.171 |
| ACATACAA | -0.0537 |
| GACCTGCA | -0.0976 |
| CTCACGTA | -0.0341 |

| Sequence | PBM E-score |
| --- | --- |
| AATACAGT | -0.0854 |
| AACGAGAC | 0.154 |
| CATACAAA | 0.102 |
| AGGTGCTG | -0.099 |
| AAAATTAG | 0.0238 |
| AAACCCTG | 0.0249 |
| TACCCCAA | -0.119 |
| CCCCAGCG | -0.146 |
| CACTCGGG | 0.00587 |
| TCGCATAA | 0.205 |
| GTGATACA | 0.311 |
| AGATTGCC | -0.238 |
| CGACAATA | 0.213 |
| CATCCGTC | 0.154 |
| GTCCTTCA | 0.00811 |
| CTCCCAAG | -0.211 |
| ATTAGCCC | -0.143 |
| ATGCCTGA | 0.00985 |
| CTGAATGC | -0.17 |
| AGCGCCAG | -0.0266 |
| ATCCATTG | -0.00772 |
| GGCATGGA | 0.0281 |
| AGCACCCT | -0.118 |
| GTTATGTA | 0.0364 |
| ACTCAGGC | -0.21 |

| Sequence | PBM E-score |
| --- | --- |
| CCTGTCAA | 0.0123 |
| ATCCCGTG | 0.282 |
| TCCAGGGA | -0.0731 |
| CACACTCC | -0.212 |
| ACAGGGCG | -0.124 |
| AGGAGCTG | -0.287 |
| AAGGGCGA | -0.179 |
| GCTCGGGA | -0.26 |
| CGGGAGAC | -0.0376 |
| AACATATC | 0.224 |
| GATACGTA | 0.124 |
| ATGTGTGA | -0.102 |
| ATCTTTCC | 0.0888 |
| AGTGAAAG | -0.186 |
| CAAGGTCA | 0.0883 |
| ATTCTCGC | -0.3 |
| CCATGCCA | -0.0934 |
| AAGTAATC | 0.0454 |
| GAACAGTC | -0.0496 |
| ATCTTGGC | -0.0831 |
| AGAAAGAG | -0.267 |
| CAAACTAG | -0.0662 |
| ATGAACAT | 0.189 |
| CAGGATAG | 0.094 |
| AGGTGCCC | -0.127 |

Three records drawn at random from those above, as already listed:

| Sequence | PBM E-score |
| --- | --- |
| AGGAGCTG | -0.287 |
| ATCTTGGC | -0.0831 |
| GCTCGGGA | -0.26 |

(further entries)

| Sequence | PBM E-score |
| --- | --- |
| CCCGTTTC | -0.127 |
| CTCGGTCC | -0.127 |
| CCAGACAC | -0.025 |
| TCGAATAA | -0.0457 |
| CGCCCAAG | -0.128 |
| CATCGCCC | -0.0286 |
| CTAAACTA | -0.162 |
| CGGTTACA | -0.0435 |
| CATTACCC | -0.0113 |
| CGTGATAG | 0.221 |
| ATTTTAAG | 0.143 |
| TGATTAAA | 0.194 |
| ACCGAGAT | 0.0744 |
| ACAGGCTA | -0.0965 |
| CACTCTCG | 0.0866 |
| CATTTTCG | 0.0799 |
| AAGGGCGT | -0.048 |
| AGGTAACG | 0.092 |
| GGATAGAA | 0.0838 |
| GCTAGACA | -0.0365 |
| CCTGCGAG | -0.0804 |
| GCCCTGCA | -0.107 |
| AGACGTAA | 0.0747 |
| AACCGAAG | -0.124 |
| AAGATACC | 0.017 |

| Sequence | PBM E-score |
| --- | --- |
| CTCCTGAA | -0.107 |
| CGGCTGTA | 0.022 |
| AACTTGGA | -0.0953 |
| AGGCCCAC | -0.22 |
| AAGCCGAC | -0.0974 |
| CGTTCAGC | 0.127 |
| GAATACGC | -0.0918 |
| ACCGTCAA | 0.143 |
| ACTTCCGA | 0.0172 |
| CCACCTCC | -0.153 |
| AGGGCGAC | -0.0984 |
| AACCGCGA | 0.0319 |
| TCACCGCA | 0.153 |
| CCAGCTGG | 0.0897 |
| CGTCATAG | 0.143 |
| GAACATAA | 0.0437 |
| GGGATGAC | 0.0961 |
| GCGGAGAC | 0.0742 |
| AGCGCGTG | 0.00517 |

2 entries from above, set out differently:
Sequence,PBM E-score
CGTTCAGC,0.127
GAATACGC,-0.0918
